# These are yes or no findings as the source states them, for the method shown. Binding seen in cells or lysates may run through a third protein.
# T1: hepatocyte cell adhesion molecule (mouse (endogenous in primary astrocyte cultures)) (UniProt Q640R3)
# T1 sequence: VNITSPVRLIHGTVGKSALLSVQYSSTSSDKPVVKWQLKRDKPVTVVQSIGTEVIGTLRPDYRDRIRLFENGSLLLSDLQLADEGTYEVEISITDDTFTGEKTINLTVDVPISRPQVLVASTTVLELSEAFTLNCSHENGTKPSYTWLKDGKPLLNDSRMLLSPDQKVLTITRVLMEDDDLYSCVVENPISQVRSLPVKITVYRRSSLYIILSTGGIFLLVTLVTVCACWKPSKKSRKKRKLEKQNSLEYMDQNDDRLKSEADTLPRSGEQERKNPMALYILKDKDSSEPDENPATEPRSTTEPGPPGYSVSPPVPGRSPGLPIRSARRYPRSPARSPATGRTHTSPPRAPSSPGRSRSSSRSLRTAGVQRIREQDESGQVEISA
# Target: T1, hepatocyte cell adhesion molecule (mouse (endogenous in primary astrocyte cultures))
# Assay: co-IP; anti-HepaCAM (Affinity Biosciences DF12075) coupled to Dynabeads M-270 Epoxy, incubated overnight at 4 °C; astroglial cell lysate; immunoblot for ApoE; mouse IgG1 beads as control
binder,measurement,value
"apolipoprotein E (protein, UniProt P08226 19-311) EGEPEVTDQLEWQSNQPWEQALNRFWDYLRWVQTLSDQVQEELQSSQVTQELTALMEDTMTEVKAYKKELEEQLGPVAEETRARLGKEVQAAQARLGADMEDLRNRLGQYRNEVHTMLGQSTEEIRARLSTHLRKMRKRLMRDAEDLQKRLAVYKAGAREGAERGVSAIRERLGPLVEQGRQRTANLGAGAAQPLRDRAQAFGDRIRGRLEEVGNQARDRLEEVREHMEEVRSKMEEQTQQIRLQAEIFQARLKGWFEPIVEDMHRQWANLMEKIQASVATNPIITPVAQENQ",binding,no binding
